Experimental findings from publication PMC5945890 are described below.

No constants are given. Whether binding was seen depends on the method and setting. Tags and fused reporters may be left off the sequences shown.

In the assay the target is T1, cleavage and polyadenylation specificity factor 30-L (CPSF30-L), BD fusion for yeast two-hybrid (Arabidopsis thaliana) (UniProt A9LNK9).
T1 sequence: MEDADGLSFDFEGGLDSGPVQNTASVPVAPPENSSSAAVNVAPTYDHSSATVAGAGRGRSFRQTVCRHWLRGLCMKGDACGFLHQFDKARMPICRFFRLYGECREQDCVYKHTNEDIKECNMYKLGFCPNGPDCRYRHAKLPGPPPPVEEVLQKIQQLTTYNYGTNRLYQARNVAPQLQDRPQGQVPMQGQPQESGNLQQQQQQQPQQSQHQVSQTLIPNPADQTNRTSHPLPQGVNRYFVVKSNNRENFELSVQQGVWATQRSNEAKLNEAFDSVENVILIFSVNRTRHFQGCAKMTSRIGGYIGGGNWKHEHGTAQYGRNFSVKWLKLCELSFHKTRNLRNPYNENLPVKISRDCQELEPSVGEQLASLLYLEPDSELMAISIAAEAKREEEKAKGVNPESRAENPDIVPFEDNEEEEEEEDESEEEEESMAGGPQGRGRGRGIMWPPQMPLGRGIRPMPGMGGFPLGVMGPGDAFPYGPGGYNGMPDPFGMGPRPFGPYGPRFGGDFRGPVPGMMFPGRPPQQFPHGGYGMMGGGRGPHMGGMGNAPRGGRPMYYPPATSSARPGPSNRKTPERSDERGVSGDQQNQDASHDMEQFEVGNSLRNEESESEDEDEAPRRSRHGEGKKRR
The assay can be described thus: two-hybrid; yeast two-hybrid (Clontech); CPSF30-L or mCPSF30-L in pGBKT7 (BD) as bait, FIP1, FIP1-S1 or FIP1-S2 in pGADT7 (AD); interaction tested on QDO (SD medium lacking leucine, tryptophan, histidine and adenine).

“FIP1-S2 (C-terminal 731 amino acid residues of FIP1), AD fusion for yeast two-hybrid (Arabidopsis thaliana) (domain or fragment)”: the binding result is “no binding”.
